Measured values: the supplement of paper PMC10849652
This is one part of the list.

Sequences of proteins named here, by UniProt entry; tags and fusion partners are left off. A change or cut given only in a name is not applied to a line headed by its entry.
UniProt Q15053: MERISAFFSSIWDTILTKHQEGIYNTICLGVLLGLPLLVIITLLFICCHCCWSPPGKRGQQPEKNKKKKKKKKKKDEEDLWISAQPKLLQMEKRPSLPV
UniProt O43731: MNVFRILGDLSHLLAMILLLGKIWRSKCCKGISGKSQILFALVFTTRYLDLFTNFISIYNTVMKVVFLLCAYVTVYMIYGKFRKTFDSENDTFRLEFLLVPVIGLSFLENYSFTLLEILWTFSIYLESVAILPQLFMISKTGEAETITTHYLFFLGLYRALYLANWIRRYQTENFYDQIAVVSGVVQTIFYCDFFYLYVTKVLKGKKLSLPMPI
UniProt O15550, whole entry, looked up: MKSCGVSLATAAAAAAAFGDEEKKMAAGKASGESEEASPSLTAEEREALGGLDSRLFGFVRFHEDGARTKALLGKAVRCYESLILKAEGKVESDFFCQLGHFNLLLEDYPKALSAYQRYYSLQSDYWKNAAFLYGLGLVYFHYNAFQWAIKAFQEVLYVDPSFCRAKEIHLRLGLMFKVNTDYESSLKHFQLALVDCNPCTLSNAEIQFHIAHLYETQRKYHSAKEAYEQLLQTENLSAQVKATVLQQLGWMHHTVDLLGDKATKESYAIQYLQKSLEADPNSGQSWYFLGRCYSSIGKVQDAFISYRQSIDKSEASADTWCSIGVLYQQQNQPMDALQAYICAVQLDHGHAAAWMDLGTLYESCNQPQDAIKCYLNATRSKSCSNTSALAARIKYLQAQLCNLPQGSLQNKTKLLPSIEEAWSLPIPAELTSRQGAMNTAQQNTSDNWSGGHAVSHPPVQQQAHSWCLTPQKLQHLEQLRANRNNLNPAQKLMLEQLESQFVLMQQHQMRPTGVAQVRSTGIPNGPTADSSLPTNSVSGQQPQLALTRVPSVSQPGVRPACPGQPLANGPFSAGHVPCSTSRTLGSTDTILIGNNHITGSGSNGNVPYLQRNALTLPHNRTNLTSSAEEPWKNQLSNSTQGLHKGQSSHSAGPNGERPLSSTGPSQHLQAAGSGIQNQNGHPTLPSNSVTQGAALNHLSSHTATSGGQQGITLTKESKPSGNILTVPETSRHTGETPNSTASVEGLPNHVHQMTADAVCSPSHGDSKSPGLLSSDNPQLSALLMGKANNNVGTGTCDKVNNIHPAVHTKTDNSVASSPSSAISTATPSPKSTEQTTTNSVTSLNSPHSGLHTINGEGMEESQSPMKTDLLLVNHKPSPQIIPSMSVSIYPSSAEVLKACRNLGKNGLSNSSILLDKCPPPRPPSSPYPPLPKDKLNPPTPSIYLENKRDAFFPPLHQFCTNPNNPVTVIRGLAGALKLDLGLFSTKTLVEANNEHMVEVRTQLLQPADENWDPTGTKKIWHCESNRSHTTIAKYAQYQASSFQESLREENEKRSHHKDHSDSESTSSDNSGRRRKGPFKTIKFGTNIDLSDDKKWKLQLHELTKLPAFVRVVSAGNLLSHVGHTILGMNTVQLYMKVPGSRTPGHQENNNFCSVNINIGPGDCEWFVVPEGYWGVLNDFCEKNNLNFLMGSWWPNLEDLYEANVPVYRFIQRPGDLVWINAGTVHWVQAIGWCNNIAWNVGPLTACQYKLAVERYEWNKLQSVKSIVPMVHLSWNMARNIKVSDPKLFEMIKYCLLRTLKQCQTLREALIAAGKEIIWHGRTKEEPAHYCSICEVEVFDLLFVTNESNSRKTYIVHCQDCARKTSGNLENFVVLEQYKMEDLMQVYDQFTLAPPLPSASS
UniProt P01591, whole entry, looked up: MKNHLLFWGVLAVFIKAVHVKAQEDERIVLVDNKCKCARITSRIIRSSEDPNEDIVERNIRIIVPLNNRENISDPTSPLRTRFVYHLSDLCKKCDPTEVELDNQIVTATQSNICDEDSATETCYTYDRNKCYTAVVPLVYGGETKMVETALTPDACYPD
UniProt Q96MP8: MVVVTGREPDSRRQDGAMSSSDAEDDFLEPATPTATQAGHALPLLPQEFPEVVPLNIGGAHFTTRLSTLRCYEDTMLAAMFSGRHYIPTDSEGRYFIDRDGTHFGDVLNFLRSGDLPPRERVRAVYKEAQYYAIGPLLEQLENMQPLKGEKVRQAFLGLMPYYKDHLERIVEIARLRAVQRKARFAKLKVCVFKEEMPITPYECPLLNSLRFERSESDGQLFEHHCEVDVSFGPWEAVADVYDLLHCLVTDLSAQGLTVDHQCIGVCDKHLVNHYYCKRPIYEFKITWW
UniProt O60333: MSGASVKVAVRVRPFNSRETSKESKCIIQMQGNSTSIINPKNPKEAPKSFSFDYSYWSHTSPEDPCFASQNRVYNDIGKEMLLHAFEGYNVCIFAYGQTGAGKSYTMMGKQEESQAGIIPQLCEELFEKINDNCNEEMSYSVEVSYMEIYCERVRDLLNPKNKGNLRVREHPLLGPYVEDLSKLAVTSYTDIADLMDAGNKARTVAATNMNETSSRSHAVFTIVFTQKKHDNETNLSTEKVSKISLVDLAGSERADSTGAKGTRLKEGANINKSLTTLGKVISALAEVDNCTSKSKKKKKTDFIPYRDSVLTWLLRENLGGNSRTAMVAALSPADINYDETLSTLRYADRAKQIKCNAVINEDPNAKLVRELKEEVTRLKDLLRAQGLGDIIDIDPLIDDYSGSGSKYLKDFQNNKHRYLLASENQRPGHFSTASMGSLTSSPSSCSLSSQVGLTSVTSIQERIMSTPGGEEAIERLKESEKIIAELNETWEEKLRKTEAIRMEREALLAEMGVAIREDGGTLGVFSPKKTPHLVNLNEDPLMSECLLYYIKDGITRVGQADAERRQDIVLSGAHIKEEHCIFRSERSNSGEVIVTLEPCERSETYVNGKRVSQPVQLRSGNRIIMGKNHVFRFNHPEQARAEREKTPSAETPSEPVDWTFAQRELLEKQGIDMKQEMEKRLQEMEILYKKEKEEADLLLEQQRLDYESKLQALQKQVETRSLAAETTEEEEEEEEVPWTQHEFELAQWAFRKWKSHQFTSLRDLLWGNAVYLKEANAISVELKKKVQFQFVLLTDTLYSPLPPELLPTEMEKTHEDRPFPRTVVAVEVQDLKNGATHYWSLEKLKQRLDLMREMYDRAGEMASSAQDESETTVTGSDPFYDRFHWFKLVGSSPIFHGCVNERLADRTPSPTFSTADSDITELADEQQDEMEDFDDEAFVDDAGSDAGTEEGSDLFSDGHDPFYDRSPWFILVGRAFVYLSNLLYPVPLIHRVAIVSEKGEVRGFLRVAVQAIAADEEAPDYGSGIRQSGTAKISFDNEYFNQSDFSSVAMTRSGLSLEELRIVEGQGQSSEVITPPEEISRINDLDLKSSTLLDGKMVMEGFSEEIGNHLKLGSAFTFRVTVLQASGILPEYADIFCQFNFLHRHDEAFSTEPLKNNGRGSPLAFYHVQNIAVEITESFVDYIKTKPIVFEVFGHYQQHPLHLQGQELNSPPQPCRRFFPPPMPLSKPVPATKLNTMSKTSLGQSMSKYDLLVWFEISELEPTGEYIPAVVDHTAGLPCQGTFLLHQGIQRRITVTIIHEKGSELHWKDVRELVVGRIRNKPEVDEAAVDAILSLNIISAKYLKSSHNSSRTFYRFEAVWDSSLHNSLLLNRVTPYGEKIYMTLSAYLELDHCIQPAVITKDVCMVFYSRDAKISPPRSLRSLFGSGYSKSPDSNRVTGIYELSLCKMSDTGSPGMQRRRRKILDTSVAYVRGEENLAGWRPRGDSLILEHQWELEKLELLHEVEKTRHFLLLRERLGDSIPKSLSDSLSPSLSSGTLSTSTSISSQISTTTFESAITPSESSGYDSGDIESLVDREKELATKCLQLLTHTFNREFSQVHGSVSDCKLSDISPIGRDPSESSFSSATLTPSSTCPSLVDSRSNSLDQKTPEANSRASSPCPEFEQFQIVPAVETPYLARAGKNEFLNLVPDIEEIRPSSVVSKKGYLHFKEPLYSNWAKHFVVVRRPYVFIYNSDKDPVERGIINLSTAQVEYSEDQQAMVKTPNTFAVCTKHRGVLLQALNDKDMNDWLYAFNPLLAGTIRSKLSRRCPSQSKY
UniProt O95239: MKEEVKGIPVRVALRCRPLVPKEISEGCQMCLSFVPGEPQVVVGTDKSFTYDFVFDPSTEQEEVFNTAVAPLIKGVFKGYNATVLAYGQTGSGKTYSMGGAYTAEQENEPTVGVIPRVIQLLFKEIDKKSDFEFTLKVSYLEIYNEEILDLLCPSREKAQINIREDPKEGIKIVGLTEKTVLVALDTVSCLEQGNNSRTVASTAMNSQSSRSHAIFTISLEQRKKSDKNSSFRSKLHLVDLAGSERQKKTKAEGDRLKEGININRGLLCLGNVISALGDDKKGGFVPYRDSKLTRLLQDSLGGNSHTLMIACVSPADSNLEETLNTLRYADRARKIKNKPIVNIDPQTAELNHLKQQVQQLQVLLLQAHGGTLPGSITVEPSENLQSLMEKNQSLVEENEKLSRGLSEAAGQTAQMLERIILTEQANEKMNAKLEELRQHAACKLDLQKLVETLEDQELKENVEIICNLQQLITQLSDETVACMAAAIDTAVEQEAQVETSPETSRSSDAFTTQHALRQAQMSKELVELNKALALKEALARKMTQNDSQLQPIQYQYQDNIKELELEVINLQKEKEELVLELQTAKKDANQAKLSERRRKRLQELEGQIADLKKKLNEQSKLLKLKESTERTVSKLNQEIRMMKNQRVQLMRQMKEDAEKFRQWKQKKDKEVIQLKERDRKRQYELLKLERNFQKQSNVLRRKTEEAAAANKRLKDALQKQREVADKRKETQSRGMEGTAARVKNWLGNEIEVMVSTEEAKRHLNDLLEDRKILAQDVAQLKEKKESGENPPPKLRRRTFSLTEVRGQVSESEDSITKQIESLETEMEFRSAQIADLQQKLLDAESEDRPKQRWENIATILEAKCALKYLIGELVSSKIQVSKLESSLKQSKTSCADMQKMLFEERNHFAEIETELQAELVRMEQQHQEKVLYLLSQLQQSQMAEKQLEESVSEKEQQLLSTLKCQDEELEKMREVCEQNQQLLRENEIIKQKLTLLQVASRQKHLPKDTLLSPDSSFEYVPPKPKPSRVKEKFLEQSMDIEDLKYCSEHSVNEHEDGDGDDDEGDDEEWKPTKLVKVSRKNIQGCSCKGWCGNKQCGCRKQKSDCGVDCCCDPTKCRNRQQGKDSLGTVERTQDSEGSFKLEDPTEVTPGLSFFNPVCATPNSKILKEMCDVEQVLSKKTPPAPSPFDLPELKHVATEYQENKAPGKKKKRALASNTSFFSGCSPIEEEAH
UniProt Q5JYT7: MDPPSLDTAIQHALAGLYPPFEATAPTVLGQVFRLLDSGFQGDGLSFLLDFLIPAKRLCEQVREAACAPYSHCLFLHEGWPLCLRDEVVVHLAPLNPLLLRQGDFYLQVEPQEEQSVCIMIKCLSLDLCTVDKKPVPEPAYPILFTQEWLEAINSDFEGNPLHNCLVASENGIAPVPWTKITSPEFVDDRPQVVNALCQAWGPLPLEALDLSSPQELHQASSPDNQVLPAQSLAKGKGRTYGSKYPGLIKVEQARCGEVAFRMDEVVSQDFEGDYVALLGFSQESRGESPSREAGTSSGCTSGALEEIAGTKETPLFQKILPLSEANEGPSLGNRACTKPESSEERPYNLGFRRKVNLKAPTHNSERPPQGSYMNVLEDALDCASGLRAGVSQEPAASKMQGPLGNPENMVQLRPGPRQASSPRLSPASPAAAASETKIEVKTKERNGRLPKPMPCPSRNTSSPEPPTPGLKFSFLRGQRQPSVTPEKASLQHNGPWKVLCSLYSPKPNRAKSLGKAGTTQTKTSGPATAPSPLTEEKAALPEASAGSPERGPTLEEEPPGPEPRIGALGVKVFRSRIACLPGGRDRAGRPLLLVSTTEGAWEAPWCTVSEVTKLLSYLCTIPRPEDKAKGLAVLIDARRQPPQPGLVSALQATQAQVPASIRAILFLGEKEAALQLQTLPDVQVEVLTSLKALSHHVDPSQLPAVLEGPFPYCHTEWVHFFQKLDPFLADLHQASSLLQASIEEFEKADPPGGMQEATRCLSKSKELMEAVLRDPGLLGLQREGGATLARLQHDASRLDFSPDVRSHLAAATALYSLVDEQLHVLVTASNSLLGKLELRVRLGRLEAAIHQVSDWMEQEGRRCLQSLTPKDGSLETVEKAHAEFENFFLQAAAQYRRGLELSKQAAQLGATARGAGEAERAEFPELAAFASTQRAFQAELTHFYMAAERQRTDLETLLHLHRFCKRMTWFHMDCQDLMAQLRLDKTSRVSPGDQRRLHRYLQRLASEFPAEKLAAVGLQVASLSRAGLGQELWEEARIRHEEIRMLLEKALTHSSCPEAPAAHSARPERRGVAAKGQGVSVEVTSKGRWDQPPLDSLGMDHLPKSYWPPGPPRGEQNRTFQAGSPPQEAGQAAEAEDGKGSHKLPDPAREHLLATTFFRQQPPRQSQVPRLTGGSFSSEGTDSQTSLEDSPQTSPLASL

Compound: NC(=O)c1cnc(N[C@@H]2CCCC[C@@H]2N)nc1Nc1cccc(-n2nccn2)c1
Experiment: log2 fold change, soluble protein after heating vs DMSO (PISA); higher = thermal stabilisation; K562 cells, 10 uM, 30 min; active = over 0.2 and 3.5 SD of the protein, either way, in both replicates (recomputed)
How it was run: (§1)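 Quantification of soluble protein used TMTpro 16plex LC-MS/MS, with channel sums equalised. Samples were the supernatant after 21,000xg for 90 min of pooled aliquots from K562 cells (2×10^6 cells/mL) treated with 10 μM compound for 30 min, heated for 3 min over 48°C-58°C, and extracted in PBS with 0.5% NP-40 at 4°C. Values, from duplicates, describe thermal stability against control samples on a log2 fold-change scale.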

Q: How did the log2 fold change turn out when KIF16B isoform 2 (UniProt Q96L93) was run?
A: inactive: 0.027

Q: How did the log2 fold change turn out when KIF20A (UniProt O95235) was run?
A: inactive: -0.052

Q: How did the log2 fold change turn out when KIAA0040 (UniProt Q15053) was run?
A: inactive: -0.144

Q: How did the log2 fold change turn out when KDELR3 (UniProt O43731) was run?
A: inactive: 0.109

Q: KIFC1 (UniProt Q9BW19) was tested. Which log2 fold change did it give?
A: inactive: 0.079

Q: Which log2 fold change does the source give for JOSD1 (UniProt Q15040) here?
A: inactive: -0.045

Q: With KLHL20 (UniProt Q9Y2M5) as the target, how does the log2 fold change read?
A: inactive: -0.156

Q: Which log2 fold change does the source give for KIZ (UniProt Q2M2Z5) here?
A: inactive: -0.067

Q: KDM6A (UniProt O15550) was tested. Which log2 fold change did it give?
A: inactive: -0.035

Q: With KAT6B (UniProt Q8WYB5) as the target, how does the log2 fold change read?
A: inactive: -0.033

Compound: NC1(c2ccc(-c3nc4ccn5c(=O)[nH]nc5c4cc3-c3ccccc3)cc2)CCC1
Experiment: as above
How it was run: as §1

Q: How did the log2 fold change turn out when JCHAIN (UniProt P01591) was run?
A: inactive: -0.165

Q: For KRT10, A0A1B0GVI3, which log2 fold change is on record?
A: inactive: -0.014

Q: With KLHL36 (UniProt Q8N4N3) as the target, how does the log2 fold change read?
A: inactive: 0.002

Q: KCTD7 (UniProt Q96MP8) was tested. Which log2 fold change did it give?
A: inactive: -0.091

Q: With KIAA0040 (UniProt Q15053) as the target, how does the log2 fold change read?
A: inactive: 0.182

Q: With KDELR3 (UniProt O43731) as the target, how does the log2 fold change read?
A: inactive: -0.061

Q: With KIFC1 (UniProt Q9BW19) as the target, how does the log2 fold change read?
A: inactive: 0.201

Q: Which log2 fold change does the source give for KIF1B isoform 3 (UniProt O60333) here?
A: inactive: -0.073

Q: With KLHL20 (UniProt Q9Y2M5) as the target, how does the log2 fold change read?
A: inactive: 0.02

Q: KAT6B (UniProt Q8WYB5) was tested. Which log2 fold change did it give?
A: inactive: -0.008

Compound: NCC(=O)Nc1ccc(-n2nc(C(F)(F)F)cc2-c2ccc3c(ccc4ccccc43)c2)cc1
Experiment: as above
How it was run: as §1

Q: How did the log2 fold change turn out when KCTD1 (UniProt Q719H9) was run?
A: inactive: -0.037

Q: For KIAA0040 (UniProt Q15053), which log2 fold change is on record?
A: inactive: -0.094

Q: KIF4A (UniProt O95239) was tested. Which log2 fold change did it give?
A: inactive: -0.13

Q: Which log2 fold change does the source give for KCNH2 (UniProt Q12809) here?
A: inactive: -0.25

Q: With KIAA1755 (UniProt Q5JYT7) as the target, how does the log2 fold change read?
A: inactive: 0.022

Q: Which log2 fold change does the source give for KIF1B isoform 3 (UniProt O60333) here?
A: inactive: -0.389

Q: Which log2 fold change does the source give for KLHL20 (UniProt Q9Y2M5) here?
A: inactive: -0.103

Q: KDM6A (UniProt O15550) was tested. Which log2 fold change did it give?
A: inactive: -0.047

Q: With KAT6B (UniProt Q8WYB5) as the target, how does the log2 fold change read?
A: inactive: 0.021

Compound: O=C(CCCCCCC(=O)Nc1ccccc1)NO [vorinostat]
Experiment: as above
How it was run: as §1

Q: Which log2 fold change does the source give for KDM3A (UniProt Q9Y4C1) here?
A: inactive: 0.03

Q: KRT10, A0A1B0GVI3 was tested. Which log2 fold change did it give?
A: inactive: 0.066

Q: For KCTD7 (UniProt Q96MP8), which log2 fold change is on record?
A: inactive: -0.086

Q: KIF20B isoform 2 (UniProt Q96Q89) was tested. Which log2 fold change did it give?
A: inactive: -0.042

Q: KIF4A (UniProt O95239) was tested. Which log2 fold change did it give?
A: inactive: 0.149

Q: ITSN2 (UniProt Q9NZM3) was tested. Which log2 fold change did it give?
A: inactive: -0.07

Q: For KRR1 (UniProt Q13601), which log2 fold change is on record?
A: inactive: 0.135

Q: KIFC1 (UniProt Q9BW19) was tested. Which log2 fold change did it give?
A: inactive: 0.298

Q: KLHL20 (UniProt Q9Y2M5) was tested. Which log2 fold change did it give?
A: inactive: 0.122

Q: With KIZ (UniProt Q2M2Z5) as the target, how does the log2 fold change read?
A: inactive: 0.137

Q: How did the log2 fold change turn out when KLHDC10 (UniProt Q6PID8) was run?
A: inactive: 0.131

Q: With KAT6B (UniProt Q8WYB5) as the target, how does the log2 fold change read?
A: inactive: 0.069

Compound: O=C(CCCCCCNC(=O)c1cnc(N(c2ccccc2)c2ccccc2Cl)nc1)NO [citarinostat]
Experiment: as above
How it was run: as §1

Q: Which log2 fold change does the source give for KDM3A (UniProt Q9Y4C1) here?
A: inactive: -0.142

Q: For JCHAIN (UniProt P01591), which log2 fold change is on record?
A: inactive: 0.714

Q: KIF16B isoform 2 (UniProt Q96L93) was tested. Which log2 fold change did it give?
A: inactive: -0.022

Q: With KLHL36 (UniProt Q8N4N3) as the target, how does the log2 fold change read?
A: inactive: -0.134

Q: With KLK10 (UniProt O43240) as the target, how does the log2 fold change read?
A: inactive: -0.179

Q: KIF4A (UniProt O95239) was tested. Which log2 fold change did it give?
A: inactive: 0.054

Q: With ITSN2 (UniProt Q9NZM3) as the target, how does the log2 fold change read?
A: inactive: 0.143

Q: Which log2 fold change does the source give for KRR1 (UniProt Q13601) here?
A: inactive: 0.026

Q: For KALRN (UniProt O60229), which log2 fold change is on record?
A: inactive: 0.103

Q: With KIFAP3 (UniProt Q92845) as the target, how does the log2 fold change read?
A: inactive: -0.056

Q: With KIAA1755 (UniProt Q5JYT7) as the target, how does the log2 fold change read?
A: inactive: 0.063

Q: KIF1B isoform 3 (UniProt O60333) was tested. Which log2 fold change did it give?
A: inactive: 0.043

Q: KIZ (UniProt Q2M2Z5) was tested. Which log2 fold change did it give?
A: inactive: -0.094

Q: How did the log2 fold change turn out when KAT6B (UniProt Q8WYB5) was run?
A: inactive: 0.111

Compound: O=C(O)c1ccc2c(c1)nc(Nc1cccc(Cl)c1)c1ccncc12 [silmitasertib]
Experiment: as above
How it was run: as §1

Q: With JCHAIN (UniProt P01591) as the target, how does the log2 fold change read?
A: inactive: 0.894

Q: With KRT10, A0A1B0GVI3 as the target, how does the log2 fold change read?
A: inactive: -0.038

Q: KLHL36 (UniProt Q8N4N3) was tested. Which log2 fold change did it give?
A: inactive: 0.13

Q: KCTD7 (UniProt Q96MP8) was tested. Which log2 fold change did it give?
A: inactive: 0.074

Q: Which log2 fold change does the source give for KIAA0040 (UniProt Q15053) here?
A: inactive: -0.04

Q: How did the log2 fold change turn out when KDELR3 (UniProt O43731) was run?
A: inactive: 0.097

Q: How did the log2 fold change turn out when KCNH2 (UniProt Q12809) was run?
A: inactive: 0.286

Q: With KIFC1 (UniProt Q9BW19) as the target, how does the log2 fold change read?
A: inactive: -0.291

Q: Which log2 fold change does the source give for KIF1B isoform 3 (UniProt O60333) here?
A: inactive: -0.057

Q: For KLHL20 (UniProt Q9Y2M5), which log2 fold change is on record?
A: inactive: 0.07

Q: With KAT6B (UniProt Q8WYB5) as the target, how does the log2 fold change read?
A: inactive: 0.081

Compound: O=C1NC(=O)C(c2cnc3ccccn23)=C1c1cn2c3c(cc(F)cc13)CN(C(=O)N1CCCCC1)CC2
Experiment: as above
How it was run: as §1

Q: How did the log2 fold change turn out when KIF20A (UniProt O95235) was run?
A: inactive: 0.184

Q: KCTD1 (UniProt Q719H9) was tested. Which log2 fold change did it give?
A: inactive: -0.099

Q: KIAA0754 (UniProt O94854) was tested. Which log2 fold change did it give?
A: inactive: 0.293

Q: KLHL36 (UniProt Q8N4N3) was tested. Which log2 fold change did it give?
A: inactive: -0.086

Q: KIF21B (UniProt O75037) was tested. Which log2 fold change did it give?
A: inactive: -0.101

Q: For KCNH2 (UniProt Q12809), which log2 fold change is on record?
A: inactive: 0.177

Q: With KALRN (UniProt O60229) as the target, how does the log2 fold change read?
A: inactive: -0.023

Q: Which log2 fold change does the source give for KLHL17 (UniProt Q6TDP4) here?
A: inactive: -0.072

Q: With KMT2E (UniProt Q8IZD2) as the target, how does the log2 fold change read?
A: inactive: -0.177

Q: Which log2 fold change does the source give for KLHL42 (UniProt Q9P2K6) here?
A: inactive: -0.107

Q: KIFAP3 (UniProt Q92845) was tested. Which log2 fold change did it give?
A: inactive: 0.073

Q: KIAA1755 (UniProt Q5JYT7) was tested. Which log2 fold change did it give?
A: inactive: 0.179

Q: With KHSRP (UniProt M0R3J3) as the target, how does the log2 fold change read?
A: inactive: -0.072

Q: KIFC1 (UniProt Q9BW19) was tested. Which log2 fold change did it give?
A: inactive: 0.291

Q: Which log2 fold change does the source give for JOSD1 (UniProt Q15040) here?
A: inactive: -0.055

Q: How did the log2 fold change turn out when KDM6A (UniProt O15550) was run?
A: inactive: 0.165
